Test results published in publication doi:10.1101/2021.07.30.454360.
Like-named read-outs stand apart in the source and are kept apart here. No constants are given. Whether binding was seen depends on the method and setting. In cells and extracts the contact can be indirect. Here binding means that the protein was enriched with, or labelled near, the bait; the list need not be complete. For some of these results: A no says only that the protein was not detected with the bait. For some of these results: Where a sequence is shown, tags or fusion partners need not be part of it. One block for each molecule: values may come before it.

Amino acid sequences for entries named in this document (tags omitted).
UniProt Q99612: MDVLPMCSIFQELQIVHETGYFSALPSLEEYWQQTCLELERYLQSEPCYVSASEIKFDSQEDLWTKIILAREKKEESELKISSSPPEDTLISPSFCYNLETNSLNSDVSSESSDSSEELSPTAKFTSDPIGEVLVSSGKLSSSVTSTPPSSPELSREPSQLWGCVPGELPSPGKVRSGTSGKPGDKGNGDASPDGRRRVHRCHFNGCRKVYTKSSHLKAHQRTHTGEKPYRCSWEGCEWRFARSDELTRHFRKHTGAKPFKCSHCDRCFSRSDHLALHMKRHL
UniProt Q9H2F5: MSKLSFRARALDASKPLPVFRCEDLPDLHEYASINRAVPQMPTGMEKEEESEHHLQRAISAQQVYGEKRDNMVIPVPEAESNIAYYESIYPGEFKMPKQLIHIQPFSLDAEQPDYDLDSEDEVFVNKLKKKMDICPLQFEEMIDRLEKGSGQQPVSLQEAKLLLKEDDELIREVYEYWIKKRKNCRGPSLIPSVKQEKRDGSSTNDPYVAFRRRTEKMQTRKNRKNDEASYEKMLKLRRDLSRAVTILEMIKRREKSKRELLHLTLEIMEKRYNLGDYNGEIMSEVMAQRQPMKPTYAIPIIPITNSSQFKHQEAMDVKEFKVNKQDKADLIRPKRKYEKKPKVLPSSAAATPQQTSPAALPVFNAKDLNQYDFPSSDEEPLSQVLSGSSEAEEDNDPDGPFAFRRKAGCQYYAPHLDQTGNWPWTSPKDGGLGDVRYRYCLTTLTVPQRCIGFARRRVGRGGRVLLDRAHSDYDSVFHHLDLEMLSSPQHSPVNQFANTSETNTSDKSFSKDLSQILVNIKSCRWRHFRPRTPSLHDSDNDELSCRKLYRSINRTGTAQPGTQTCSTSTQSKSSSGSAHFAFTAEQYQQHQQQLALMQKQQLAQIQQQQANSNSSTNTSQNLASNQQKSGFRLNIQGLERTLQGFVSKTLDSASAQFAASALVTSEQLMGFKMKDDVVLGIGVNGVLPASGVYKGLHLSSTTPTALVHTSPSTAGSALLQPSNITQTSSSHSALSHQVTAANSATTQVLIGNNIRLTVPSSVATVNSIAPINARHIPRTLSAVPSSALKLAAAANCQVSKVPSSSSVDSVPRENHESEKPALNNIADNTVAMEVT
UniProt Q09472: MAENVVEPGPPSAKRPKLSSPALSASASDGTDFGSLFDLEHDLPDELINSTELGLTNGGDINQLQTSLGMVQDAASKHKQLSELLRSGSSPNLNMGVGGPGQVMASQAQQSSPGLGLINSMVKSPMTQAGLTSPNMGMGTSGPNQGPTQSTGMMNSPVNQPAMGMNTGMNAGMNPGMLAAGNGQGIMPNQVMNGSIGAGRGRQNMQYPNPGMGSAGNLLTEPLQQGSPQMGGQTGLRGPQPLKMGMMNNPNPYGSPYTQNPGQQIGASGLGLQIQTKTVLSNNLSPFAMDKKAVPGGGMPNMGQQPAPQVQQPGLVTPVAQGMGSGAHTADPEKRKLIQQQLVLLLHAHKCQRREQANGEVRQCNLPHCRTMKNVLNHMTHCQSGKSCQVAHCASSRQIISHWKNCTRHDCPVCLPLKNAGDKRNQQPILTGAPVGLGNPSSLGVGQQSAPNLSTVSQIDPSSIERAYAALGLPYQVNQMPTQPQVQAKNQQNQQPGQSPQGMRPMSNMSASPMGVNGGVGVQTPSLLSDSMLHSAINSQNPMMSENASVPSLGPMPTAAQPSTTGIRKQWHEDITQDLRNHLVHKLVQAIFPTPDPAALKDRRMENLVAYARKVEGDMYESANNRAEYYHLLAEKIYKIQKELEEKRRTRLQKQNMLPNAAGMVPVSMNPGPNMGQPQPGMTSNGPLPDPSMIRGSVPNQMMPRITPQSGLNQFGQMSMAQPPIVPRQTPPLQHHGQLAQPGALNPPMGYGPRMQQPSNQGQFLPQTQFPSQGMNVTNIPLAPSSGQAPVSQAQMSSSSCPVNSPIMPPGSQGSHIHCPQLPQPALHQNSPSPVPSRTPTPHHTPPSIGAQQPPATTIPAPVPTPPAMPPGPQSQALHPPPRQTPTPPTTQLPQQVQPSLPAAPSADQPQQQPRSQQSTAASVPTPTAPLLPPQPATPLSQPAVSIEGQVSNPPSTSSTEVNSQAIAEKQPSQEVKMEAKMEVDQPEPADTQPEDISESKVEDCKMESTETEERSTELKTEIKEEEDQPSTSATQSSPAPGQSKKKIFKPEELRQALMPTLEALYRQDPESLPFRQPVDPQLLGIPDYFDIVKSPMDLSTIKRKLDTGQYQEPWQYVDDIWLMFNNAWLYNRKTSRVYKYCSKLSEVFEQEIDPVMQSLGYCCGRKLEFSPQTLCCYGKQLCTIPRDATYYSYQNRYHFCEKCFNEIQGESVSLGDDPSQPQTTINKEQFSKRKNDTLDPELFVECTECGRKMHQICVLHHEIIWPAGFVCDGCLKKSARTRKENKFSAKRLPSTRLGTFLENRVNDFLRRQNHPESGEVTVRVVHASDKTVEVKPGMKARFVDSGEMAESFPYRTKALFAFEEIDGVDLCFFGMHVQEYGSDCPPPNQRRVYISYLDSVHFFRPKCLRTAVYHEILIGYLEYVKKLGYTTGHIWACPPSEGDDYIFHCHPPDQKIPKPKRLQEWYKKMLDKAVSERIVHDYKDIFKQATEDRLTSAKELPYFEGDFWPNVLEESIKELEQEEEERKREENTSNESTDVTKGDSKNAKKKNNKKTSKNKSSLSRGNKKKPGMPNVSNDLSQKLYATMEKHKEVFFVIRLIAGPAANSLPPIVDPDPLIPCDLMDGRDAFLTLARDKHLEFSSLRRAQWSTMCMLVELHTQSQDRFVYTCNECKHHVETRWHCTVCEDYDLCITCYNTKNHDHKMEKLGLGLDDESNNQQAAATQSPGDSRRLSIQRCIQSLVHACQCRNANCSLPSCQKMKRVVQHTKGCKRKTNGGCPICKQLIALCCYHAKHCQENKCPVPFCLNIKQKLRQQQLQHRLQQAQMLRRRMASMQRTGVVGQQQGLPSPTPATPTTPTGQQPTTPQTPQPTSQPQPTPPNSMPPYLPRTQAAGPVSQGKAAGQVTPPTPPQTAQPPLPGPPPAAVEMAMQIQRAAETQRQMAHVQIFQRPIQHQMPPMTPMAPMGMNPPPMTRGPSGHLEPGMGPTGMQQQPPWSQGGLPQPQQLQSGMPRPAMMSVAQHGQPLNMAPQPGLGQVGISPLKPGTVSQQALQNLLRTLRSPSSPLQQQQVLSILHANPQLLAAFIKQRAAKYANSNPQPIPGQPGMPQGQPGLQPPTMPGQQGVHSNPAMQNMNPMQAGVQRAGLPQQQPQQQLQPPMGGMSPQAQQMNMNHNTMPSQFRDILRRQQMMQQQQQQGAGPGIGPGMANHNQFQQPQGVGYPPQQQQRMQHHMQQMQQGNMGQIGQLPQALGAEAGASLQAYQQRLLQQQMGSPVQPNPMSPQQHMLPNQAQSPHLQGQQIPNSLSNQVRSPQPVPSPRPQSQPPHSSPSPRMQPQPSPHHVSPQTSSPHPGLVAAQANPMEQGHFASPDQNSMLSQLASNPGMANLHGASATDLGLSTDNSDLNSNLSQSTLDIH
UniProt Q92793: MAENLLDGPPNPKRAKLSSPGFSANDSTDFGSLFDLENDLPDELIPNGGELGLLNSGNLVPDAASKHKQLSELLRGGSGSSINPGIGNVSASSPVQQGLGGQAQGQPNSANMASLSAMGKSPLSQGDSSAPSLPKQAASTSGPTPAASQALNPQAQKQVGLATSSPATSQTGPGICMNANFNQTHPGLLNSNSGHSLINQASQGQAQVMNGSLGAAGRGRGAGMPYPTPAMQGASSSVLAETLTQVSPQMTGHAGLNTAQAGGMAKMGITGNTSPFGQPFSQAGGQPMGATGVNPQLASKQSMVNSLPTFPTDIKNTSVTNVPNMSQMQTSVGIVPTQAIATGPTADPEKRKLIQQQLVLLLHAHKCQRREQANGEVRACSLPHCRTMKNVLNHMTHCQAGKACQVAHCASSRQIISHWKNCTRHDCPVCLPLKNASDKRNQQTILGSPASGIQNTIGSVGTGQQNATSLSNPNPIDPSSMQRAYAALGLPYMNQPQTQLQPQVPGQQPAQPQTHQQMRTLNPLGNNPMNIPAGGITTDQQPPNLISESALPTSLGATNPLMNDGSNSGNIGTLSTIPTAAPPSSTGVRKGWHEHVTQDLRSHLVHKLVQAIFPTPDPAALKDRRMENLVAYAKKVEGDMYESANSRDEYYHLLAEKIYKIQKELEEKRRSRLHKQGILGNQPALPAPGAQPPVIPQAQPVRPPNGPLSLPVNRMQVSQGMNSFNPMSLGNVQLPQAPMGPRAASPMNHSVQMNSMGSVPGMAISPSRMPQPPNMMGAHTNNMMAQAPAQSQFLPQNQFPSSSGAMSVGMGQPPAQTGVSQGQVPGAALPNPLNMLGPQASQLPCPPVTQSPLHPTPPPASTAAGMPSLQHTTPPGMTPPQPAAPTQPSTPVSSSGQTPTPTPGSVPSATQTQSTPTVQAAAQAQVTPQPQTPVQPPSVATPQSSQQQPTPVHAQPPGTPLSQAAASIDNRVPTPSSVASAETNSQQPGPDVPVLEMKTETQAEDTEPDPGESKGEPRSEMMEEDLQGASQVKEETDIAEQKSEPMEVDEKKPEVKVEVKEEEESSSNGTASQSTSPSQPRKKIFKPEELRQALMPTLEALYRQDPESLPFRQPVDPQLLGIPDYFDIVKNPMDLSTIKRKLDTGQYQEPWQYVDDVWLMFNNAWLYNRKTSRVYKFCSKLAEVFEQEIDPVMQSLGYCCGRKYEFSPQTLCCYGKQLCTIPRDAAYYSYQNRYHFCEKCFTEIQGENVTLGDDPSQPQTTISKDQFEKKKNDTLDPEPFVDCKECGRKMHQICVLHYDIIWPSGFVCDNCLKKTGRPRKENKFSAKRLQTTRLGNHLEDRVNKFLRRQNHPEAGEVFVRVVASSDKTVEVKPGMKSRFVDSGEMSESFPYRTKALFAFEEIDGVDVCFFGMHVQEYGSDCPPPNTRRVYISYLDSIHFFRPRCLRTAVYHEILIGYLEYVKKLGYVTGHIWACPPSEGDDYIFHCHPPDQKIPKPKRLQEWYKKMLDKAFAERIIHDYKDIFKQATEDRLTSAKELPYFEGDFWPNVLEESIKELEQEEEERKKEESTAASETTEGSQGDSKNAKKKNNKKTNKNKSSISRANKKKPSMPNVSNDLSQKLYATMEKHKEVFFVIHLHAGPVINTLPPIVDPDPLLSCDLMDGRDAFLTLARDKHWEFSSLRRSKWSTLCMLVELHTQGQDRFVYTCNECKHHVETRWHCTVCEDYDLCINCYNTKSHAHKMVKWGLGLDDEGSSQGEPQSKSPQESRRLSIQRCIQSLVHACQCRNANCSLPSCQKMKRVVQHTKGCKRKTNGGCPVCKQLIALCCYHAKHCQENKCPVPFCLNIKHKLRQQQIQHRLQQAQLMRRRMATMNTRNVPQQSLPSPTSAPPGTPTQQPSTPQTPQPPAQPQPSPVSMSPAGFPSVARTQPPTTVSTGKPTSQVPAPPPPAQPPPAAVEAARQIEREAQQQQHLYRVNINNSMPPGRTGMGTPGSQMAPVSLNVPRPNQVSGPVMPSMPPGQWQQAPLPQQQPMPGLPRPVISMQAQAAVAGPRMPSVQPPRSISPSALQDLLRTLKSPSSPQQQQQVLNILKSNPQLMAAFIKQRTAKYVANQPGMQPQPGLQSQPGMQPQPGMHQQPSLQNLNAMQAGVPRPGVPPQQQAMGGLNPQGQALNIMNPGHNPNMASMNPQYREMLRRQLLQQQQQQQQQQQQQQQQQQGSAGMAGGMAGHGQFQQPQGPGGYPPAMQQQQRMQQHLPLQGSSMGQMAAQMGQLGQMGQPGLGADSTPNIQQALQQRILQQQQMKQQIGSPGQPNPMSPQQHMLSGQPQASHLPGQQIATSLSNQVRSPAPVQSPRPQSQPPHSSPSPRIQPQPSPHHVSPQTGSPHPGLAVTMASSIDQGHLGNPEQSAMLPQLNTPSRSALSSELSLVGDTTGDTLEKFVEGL
UniProt Q9Y483: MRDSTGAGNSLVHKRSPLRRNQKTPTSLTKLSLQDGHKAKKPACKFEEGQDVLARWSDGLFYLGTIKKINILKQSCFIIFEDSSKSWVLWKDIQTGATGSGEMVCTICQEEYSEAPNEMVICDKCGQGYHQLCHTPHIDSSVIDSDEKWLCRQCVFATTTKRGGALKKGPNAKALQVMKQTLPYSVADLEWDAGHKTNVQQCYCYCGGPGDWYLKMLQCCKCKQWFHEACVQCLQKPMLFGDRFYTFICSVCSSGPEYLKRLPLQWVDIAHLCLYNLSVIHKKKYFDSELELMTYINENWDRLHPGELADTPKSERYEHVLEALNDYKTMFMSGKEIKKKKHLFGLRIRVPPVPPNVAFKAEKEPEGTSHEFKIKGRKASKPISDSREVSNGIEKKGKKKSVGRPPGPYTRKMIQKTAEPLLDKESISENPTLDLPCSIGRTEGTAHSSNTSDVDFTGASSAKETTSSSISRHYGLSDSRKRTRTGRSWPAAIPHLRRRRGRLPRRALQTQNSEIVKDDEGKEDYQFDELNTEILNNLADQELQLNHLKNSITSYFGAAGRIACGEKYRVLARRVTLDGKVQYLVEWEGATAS

What was measured:
[1] = target: T1, FAM90A1-BioID2-FLAG (human) (UniProt Q86YD7); test: affinity purification with mass spectrometry + proximity labelling
T1 sequence: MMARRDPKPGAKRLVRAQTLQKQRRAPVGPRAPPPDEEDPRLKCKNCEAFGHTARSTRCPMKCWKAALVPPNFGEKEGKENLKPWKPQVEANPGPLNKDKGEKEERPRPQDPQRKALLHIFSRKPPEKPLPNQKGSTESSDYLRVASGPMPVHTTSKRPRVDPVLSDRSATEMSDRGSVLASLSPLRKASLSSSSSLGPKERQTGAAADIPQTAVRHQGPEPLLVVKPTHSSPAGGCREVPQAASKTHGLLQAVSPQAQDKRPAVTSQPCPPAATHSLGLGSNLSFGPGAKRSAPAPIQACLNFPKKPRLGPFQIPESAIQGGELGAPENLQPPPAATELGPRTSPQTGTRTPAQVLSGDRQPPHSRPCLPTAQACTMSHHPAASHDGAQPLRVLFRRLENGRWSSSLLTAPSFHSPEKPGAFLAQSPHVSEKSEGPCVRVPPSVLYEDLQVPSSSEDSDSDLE

[2] = target: T2, SPDYE4-BioID2-FLAG (human) (UniProt A6NLX3); test: as above
T2 sequence: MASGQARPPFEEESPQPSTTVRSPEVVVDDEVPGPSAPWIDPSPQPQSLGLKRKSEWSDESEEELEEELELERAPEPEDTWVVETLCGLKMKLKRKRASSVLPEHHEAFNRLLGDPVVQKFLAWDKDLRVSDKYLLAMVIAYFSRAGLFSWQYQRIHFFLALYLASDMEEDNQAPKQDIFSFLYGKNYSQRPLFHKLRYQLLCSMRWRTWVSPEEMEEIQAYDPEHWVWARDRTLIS

[3] = target: SUZ12-BioID2-FLAG (human) (UniProt Q15022); test: proximity labelling
[4] = target: HOXB2-BioID2-FLAG (human) (UniProt P14652); test: proximity labelling
[5] = target: KLF15-BioID2-FLAG (human) (UniProt Q9UIH9); test: proximity labelling
SOX7-BioID2-FLAG (human) = SOX7-BioID2-FLAG (human) (UniProt Q9BT81); test: proximity labelling
SRF-BioID2-FLAG (human) [6] = target: T3, SRF-BioID2-FLAG (human) (UniProt P11831); test: proximity labelling
T3 sequence: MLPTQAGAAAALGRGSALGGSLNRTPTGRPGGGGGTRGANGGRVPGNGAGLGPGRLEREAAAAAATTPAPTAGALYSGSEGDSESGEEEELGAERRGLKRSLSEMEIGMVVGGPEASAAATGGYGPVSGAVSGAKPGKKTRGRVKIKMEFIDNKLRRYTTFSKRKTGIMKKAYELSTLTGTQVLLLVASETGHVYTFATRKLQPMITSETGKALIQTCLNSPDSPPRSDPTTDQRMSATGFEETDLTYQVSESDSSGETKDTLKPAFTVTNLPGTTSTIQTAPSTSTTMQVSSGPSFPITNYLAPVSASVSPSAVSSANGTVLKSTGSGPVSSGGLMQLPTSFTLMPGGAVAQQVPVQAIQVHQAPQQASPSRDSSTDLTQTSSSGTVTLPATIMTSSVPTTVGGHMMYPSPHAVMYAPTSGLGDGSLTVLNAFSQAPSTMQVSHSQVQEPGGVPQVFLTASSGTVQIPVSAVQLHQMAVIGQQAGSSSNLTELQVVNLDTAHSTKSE

KLF6-BioID2-FLAG (human) = KLF6-BioID2-FLAG (human) (UniProt Q99612); test: proximity labelling
[7] = target: T4, SS18L2-BioID2-FLAG (human) (UniProt Q9UHA2); test: affinity purification with mass spectrometry + proximity labelling
T4 sequence: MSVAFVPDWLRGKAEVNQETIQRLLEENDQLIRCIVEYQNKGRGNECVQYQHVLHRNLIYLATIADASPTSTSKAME

SRF-BioID2-FLAG (human) [8] = target: T3, SRF-BioID2-FLAG (human); test: proximity labelling; remark: listed apart in the source

Molecule: BRD2 (from UniProt P25440 1-801)
binding [1]: binds
binding [2]: binds

Molecule: C10orf12 (from UniProt Q96JN0-3)
binding [3]: binds

Molecule: EPC1 (from UniProt Q9H2F5 1-836)
binding (KLF6-BioID2-FLAG (human)): binds

Molecule: SMARCA2 (from UniProt P51531 1-1590)
binding [7]: binds

Molecule: p300 (from UniProt Q09472 1-2414)
binding [4]: binds
binding [5]: binds
binding (SOX7-BioID2-FLAG (human)): binds
binding (SRF-BioID2-FLAG (human) [6]): no binding

More lines, now with the values ahead:

binding [4]: binds
binding [5]: binds
binding (SOX7-BioID2-FLAG (human)): binds
binding (SRF-BioID2-FLAG (human) [6]): no binding
Molecule: CBP (from UniProt Q92793 1-2442)

binding [3]: binds
Molecule: MTF2/PCL2 (from UniProt Q9Y483 1-593)

binding [7]: binds
Molecule: SMARCA4 (from UniProt P51532 1-1647)

binding (SRF-BioID2-FLAG (human) [8]): binds
B1: ELK1 (protein, UniProt P19419 1-428)
chain: MDPSVTLWQFLLQLLREQGNGHIISWTSRDGGEFKLVDAEEVARLWGLRKNKTNMNYDKLSRALRYYYDKNIIRKVSGQKFVYKFVSYPEVAGCSTEDCPPQPEVSVTSTMPNVAPAAIHAAPGDTVSGKPGTPKGAGMAGPGGLARSSRNEYMRSGLYSTFTIQSLQPQPPPHPRPAVVLPSAAPAGAAAPPSGSRSTSPSPLEACLEAEEAGLPLQVILTPPEAPNLKSEELNVEPGLGRALPPEVKVEGPKEELEVAGERGFVPETTKAEPEVPPQEGVPARLPAVVMDTAGQAGGHAASSPEISQPQKGRKPRDLELPLSPSLLGGPGPERTPGSGSGSGLQAPGPALTPSLLPTHTLTPVLLTPSSLPPSIHFWSTLSPIAPRSPAKLSFQFPSSGSAQVHIPSISVDGLSTPVVLSPGPQKP
